Test results as given in patent publication US11592453B2, “Personalized metabolomic profiling of specialized pro-resolving mediators” (THE BRIGHAM AND WOMEN'S HOSPITAL, INC., priority 2016, dated 2023).
Some entries repeat one wording, which the source may state once for all of them.

Legend:
[1] = test system: prostaglandin, thromboxane and SPM production in human whole blood; test: LM metabololipidomics of human whole blood during coagulation in the presence of indomethacin; assay type: cell-based; conditions: mean of six donors; for LM concentration Avg, Indomethacin t = 0 h: 0 h after coagulation in the presence of indomethacin; for LM concentration Avg, Indomethacin t = 0.25 h: 0.25 h after coagulation in the presence of indomethacin; for LM concentration Avg, Indomethacin t = 0.5 h: 0.5 h after coagulation in the presence of indomethacin; for LM concentration Avg, Indomethacin t = 1 h: 1 h after coagulation in the presence of indomethacin; for LM concentration Avg, Indomethacin t = 3 h: 3 h after coagulation in the presence of indomethacin; for LM concentration Avg, Indomethacin t = 6 h: 6 h after coagulation in the presence of indomethacin; for LM concentration Avg, Indomethacin t = 24 h: 24 h after coagulation in the presence of indomethacin
Procedure: FIG. 8 illustrates SPM formation in human blood clots being regulated by lipoxygenase activity. (A and B) Freshly drawn human peripheral blood (4 ml) was placed in silicone-coated tubes at 37° C. for 24 hours and coagulation was stopped by snap-freezing before LC-MS/MS analysis was performed. Concentrations of total SPMs, prostaglandins, and thromboxanes after 24 hours of coagulation (Coag.) in the presence or absence of (A) 100 μM indomethacin (Indo.) (n=six individual donors), (B) 500 nM celecoxib (CLX) or 20 μM BAI (n=three individual donors). Data are means±SEM; *P<0.05 for +BAI vs. Coag; ****P<0.0001 for +Indo vs. Coag. using ratio t-test.
Human whole blood was transferred in 4-ml aliquots to negatively charged, silicone-coated 10-ml tubes (BD) without anticoagulant. For experiments with heparin, the heparinized blood was placed in 15-ml polypropylene tubes before incubation at 37° C. For LM profiling at designated times, all samples were immediately subjected to a workup procedure by which whole blood was snap-frozen in a dry ice/isopropanol bath and were returned to room temperature (×3 cycles) before undergoing centrifugation at 100,000 g at 4° C. Supernatants (and clots for select experiments; see FIG. 6) were collected and were subjected to LC-MS/MS LM metabololipidomics.
To obtain a complete blood profile of eicosanoids and SPMs each sample was subjected to a procedure involving snap-freezing of whole blood that was then thawed to room temperature three times and centrifuged at 100,000 g at 4 °C for 30 min before undergoing solid-phase extraction (SPE). Internal standards including d8-5-HETE, d5-RvD2, d5-LXA4, d4-LTB4, and d4-PGE2 (500 pg each; Cayman Chemical) were added together with four volumes of methanol to facilitate protein precipitation. […] Before elution, LM bound to the SPE matrix were neutralized with ddH2O. Methyl formate fractions from the SPE were brought to dryness under a gentle stream of nitrogen and resuspended in 1:1 methanol:water before injection into a liquid chromatography-tandem mass spectrometry system consisting of a QTrap 5500 (AB Sciex) equipped with a Shimadzu LC-20AD HPLC (Tokyo, Japan). A Poroshell 120 EC-18 column (100 mm×4.6 mm×2.7 μm; Agilent Technologies) was kept in a column oven maintained at 50° C., and lipid mediators (LMs) were eluted in a gradient of methanol/water/acetic acid from 55:45:0.01 (v/v/v) to 100:0:0.01 at a flow rate of 0.5 ml/min. To monitor and quantify the amounts of lipid mediators of interest, multiple reaction monitoring (MRM) was used with MS/MS matching signature ion fragments for each molecule (at least six diagnostic ions; ˜0.1 pg limits of detection as described previously (15)]. PCA was performed as described previously (15) with SIMCA software, version 13.0.3. Calibration curves were obtained daily from authentic (nonsynthetic) standards and matrix suppression for each targeted LM in snap-frozen blood, and supernatants determined and used for recovery and quantitation.

[2] = Murine peritonitis and hemorrhagic exudates, LM profiling; assay type: in vivo; conditions: mice, zymosan plus thrombin i.p., 4 hours

SMILES | LM concentration Avg, Indomethacin t = 0 h [1] | LM concentration Avg, Indomethacin t = 0.25 h [1] | LM concentration Avg, Indomethacin t = 0.5 h [1] | LM concentration Avg, Indomethacin t = 1 h [1] | LM concentration Avg, Indomethacin t = 3 h [1] | LM concentration Avg, Indomethacin t = 6 h [1] | LM concentration Avg, Indomethacin t = 24 h [1] | abundance in hemorrhagic exudates compared to sham saline alone [2]
CCCCC[C@@H](O)/C=C/C=C\C=C\C=C\[C@@H](O)[C@@H](O)CCCC(=O)O [AT-LX44, 15-epi-lipoxin A4 (aspirin-triggered lipoxin A4)] | 1.3 pg/mL | 1.7 pg/mL | 2.7 pg/mL | 2.2 pg/mL | 4.0 pg/mL | 5.4 pg/mL | 11.4 pg/mL | 
CCCCC/C=C\C[C@@H](O)/C=C/C=C/C=C\[C@@H](O)CCCC(=O)O [LTB4, leukotriene B4, (5S, 12R-dihydroxy-eicosa-6Z, 8E, 10E, 14Z-tetraenoic acid)] | 1.2 pg/mL | 6.8 pg/mL | 47.8 pg/mL | 75.5 pg/mL | 110.2 pg/mL | 95.1 pg/mL | 51.0 pg/mL | 
CCCCC[C@H](O)/C=C/C=C\C=C\C=C\[C@@H](O)[C@@H](O)CCCC(=O)O [LXA4, lipoxin A4 (5S, 6R, 15S-trihydroxy-eicosa-7E, 9E, 11Z, 13E-tetraenoic acid)] | — ((—) denotes concentrations <0.1 pg/ml) | — ((—) denotes concentrations <0.1 pg/ml) | — ((—) denotes concentrations <0.1 pg/ml) | — ((—) denotes concentrations <0.1 pg/ml) | — ((—) denotes concentrations <0.1 pg/ml) | — ((—) denotes concentrations <0.1 pg/ml) | — ((—) denotes concentrations <0.1 pg/ml) | 
CCCCC[C@H](O)[C@H](O)/C=C/C=C/C=C\C=C\[C@@H](O)CCCC(=O)O [LXB4, lipoxin B4: (5S, 14R, 15S-trihydroxy-eicosa-6E, 8Z, 10E, 12E-tetraenoic acid)] | 0.5 pg/mL | 1.0 pg/mL | 0.4 pg/mL | 0.6 pg/mL | 0.7 pg/mL | 0.8 pg/mL | 2.0 pg/mL | statistically significantly increased in abundance
CC/C=C\C[C@H](O)\C=C/C=C/C=C/[C@H](O)C/C=C\C/C=C\CCC(=O)O [PD1, protectin D1 (10R, 17S-dihydroxy-docosa-4Z, 7Z, 11E, 13E, 15Z, 19Z-hexaenoic acid)] | 0.5 pg/mL | 0.5 pg/mL | 0.6 pg/mL | 0.9 pg/mL | 0.6 pg/mL | 0.8 pg/mL | 1.6 pg/mL | 
CCCCC[C@H](O)/C=C/[C@H]1C(=O)C[C@H](O)[C@@H]1C/C=C\CCCC(=O)O [PGD2, 11-oxo-9α, 15S-dihydroxy-prosta-5Z, 13E-dien-1-oic acid] | 0.5 pg/mL | 0.4 pg/mL | 0.7 pg/mL | 0.7 pg/mL | 3.0 pg/mL | 5.3 pg/mL | 7.1 pg/mL | 
CCCCC[C@H](O)/C=C/[C@H]1[C@H](O)CC(=O)[C@@H]1C/C=C\CCCC(=O)O [PGE2, 9-oxo-11α, 15S-dihydroxy-prosta-5Z, 13E-dien-1-oic acid] | 0.3 pg/mL | 0.6 pg/mL | 0.7 pg/mL | 0.9 pg/mL | 1.2 pg/mL | 1.8 pg/mL | 2.6 pg/mL | 
CCCCC[C@H](O)/C=C/[C@@H]1[C@@H](C/C=C\CCCC(=O)O)[C@@H](O)C[C@H]1O [PGF2a, 9α, 11α, 15S-trihydroxy-prosta-5Z, 13E-dienoic acid] | — ((—) denotes concentrations <0.1 pg/ml) | 0.3 pg/mL | 0.3 pg/mL | 0.2 pg/mL | 0.5 pg/mL | 0.7 pg/mL | 1.6 pg/mL | 
CC/C=C\C[C@H](O)[C@H](O)/C=C/C=C/C=C\C=C\[C@@H](O)C/C=C\CCC(=O)O [RvD2, Resolvin D2 (7S, 16R, 17S-trihydroxy-docosa-4Z, 8E, 10Z, 12E, 14E, 19Z-hexaenoic acid)] | — ((—) denotes concentrations <0.1 pg/ml) | — ((—) denotes concentrations <0.1 pg/ml) | — ((—) denotes concentrations <0.1 pg/ml) | — ((—) denotes concentrations <0.1 pg/ml) | — ((—) denotes concentrations <0.1 pg/ml) | — ((—) denotes concentrations <0.1 pg/ml) | — ((—) denotes concentrations <0.1 pg/ml) | 
CC[C@@H](O)/C=C/C=C\C/C=C\C/C=C\C=C\[C@@H](O)CCCC(=O)O [RvE2, Resolvin E2 (5S, 18R-dihydroxy-eicosa-6E, 8Z, 11Z, 14Z, 16E-pentaenoic acid)] | — ((—) denotes concentrations <0.1 pg/ml) | — ((—) denotes concentrations <0.1 pg/ml) | — ((—) denotes concentrations <0.1 pg/ml) | — ((—) denotes concentrations <0.1 pg/ml) | — ((—) denotes concentrations <0.1 pg/ml) | — ((—) denotes concentrations <0.1 pg/ml) | — ((—) denotes concentrations <0.1 pg/ml) | 
CC[C@@H](O)[C@H](O)/C=C/C=C/C=C\C/C=C\C/C=C\CCCC(=O)O [RvE3, Resolvin E3 (17R,18R-dihydroxy-eicosa-5Z, 8Z, 11Z, 13E, 15E-pentaenoic acid)] | — ((—) denotes concentrations <0.1 pg/ml) | — ((—) denotes concentrations <0.1 pg/ml) | — ((—) denotes concentrations <0.1 pg/ml) | — ((—) denotes concentrations <0.1 pg/ml) | — ((—) denotes concentrations <0.1 pg/ml) | — ((—) denotes concentrations <0.1 pg/ml) | — ((—) denotes concentrations <0.1 pg/ml) | 
CCCCC[C@H](O)/C=C/[C@H]1OC(O)C[C@H](O)[C@@H]1C/C=C\CCCC(=O)O (stereo partly drawn) [TXB2, 9α, 11, 15S-trihydroxy-thromba-5Z, 13E-dien-1-oic acid] | 1.4 pg/mL | 0.5 pg/mL | 1.0 pg/mL | 2.9 pg/mL | 4.3 pg/mL | 2.6 pg/mL | 5.1 pg/mL | 
